This assay concerns the target T1, human MAGED2 full length with C-terminal Flag tag (MAGED2-Flag) (human) (UniProt Q9UNF1).
T1 sequence: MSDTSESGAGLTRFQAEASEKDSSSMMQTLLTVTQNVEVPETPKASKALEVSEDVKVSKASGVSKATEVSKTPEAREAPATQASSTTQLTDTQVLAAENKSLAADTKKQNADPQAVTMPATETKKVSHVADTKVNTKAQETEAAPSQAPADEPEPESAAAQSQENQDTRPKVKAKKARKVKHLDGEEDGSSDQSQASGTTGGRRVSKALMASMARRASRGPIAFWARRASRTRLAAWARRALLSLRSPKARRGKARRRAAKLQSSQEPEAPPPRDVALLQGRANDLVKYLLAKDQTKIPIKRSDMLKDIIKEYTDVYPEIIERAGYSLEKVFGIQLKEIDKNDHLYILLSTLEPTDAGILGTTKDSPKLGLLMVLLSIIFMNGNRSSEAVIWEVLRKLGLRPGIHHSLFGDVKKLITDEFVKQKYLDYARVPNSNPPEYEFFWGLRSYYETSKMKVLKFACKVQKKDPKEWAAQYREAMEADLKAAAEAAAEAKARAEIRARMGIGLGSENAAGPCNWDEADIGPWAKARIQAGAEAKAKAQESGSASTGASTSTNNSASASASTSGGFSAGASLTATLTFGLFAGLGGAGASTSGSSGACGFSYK
Put plainly: co-IP.

These are yes or no findings as the source states them, for the method shown. In cells and extracts the contact can be indirect. Some results given as binding are weak or reduced against the parent protein; the word gives no strength. Tags and fused reporters may be left off the sequences shown.

As to “SARS-CoV-2 nsp12 (from UniProt P0DTD1) (enzyme)”, the binding result is “binds”.

For the substance SARS-CoV-2 nsp9 (from UniProt P0DTD1), the binding entry is given as “binds”.

(Values after PMC10470497.)
